Drawing on the supplement of paper PMC10849652, this text covers log2 fold change for 23 targets.

Chains of the proteins cited; added tags and fusions are not shown. Lines headed by an entry give the natural chain unless they say otherwise; changes in a name come on top.
UniProt Q9Y4B5: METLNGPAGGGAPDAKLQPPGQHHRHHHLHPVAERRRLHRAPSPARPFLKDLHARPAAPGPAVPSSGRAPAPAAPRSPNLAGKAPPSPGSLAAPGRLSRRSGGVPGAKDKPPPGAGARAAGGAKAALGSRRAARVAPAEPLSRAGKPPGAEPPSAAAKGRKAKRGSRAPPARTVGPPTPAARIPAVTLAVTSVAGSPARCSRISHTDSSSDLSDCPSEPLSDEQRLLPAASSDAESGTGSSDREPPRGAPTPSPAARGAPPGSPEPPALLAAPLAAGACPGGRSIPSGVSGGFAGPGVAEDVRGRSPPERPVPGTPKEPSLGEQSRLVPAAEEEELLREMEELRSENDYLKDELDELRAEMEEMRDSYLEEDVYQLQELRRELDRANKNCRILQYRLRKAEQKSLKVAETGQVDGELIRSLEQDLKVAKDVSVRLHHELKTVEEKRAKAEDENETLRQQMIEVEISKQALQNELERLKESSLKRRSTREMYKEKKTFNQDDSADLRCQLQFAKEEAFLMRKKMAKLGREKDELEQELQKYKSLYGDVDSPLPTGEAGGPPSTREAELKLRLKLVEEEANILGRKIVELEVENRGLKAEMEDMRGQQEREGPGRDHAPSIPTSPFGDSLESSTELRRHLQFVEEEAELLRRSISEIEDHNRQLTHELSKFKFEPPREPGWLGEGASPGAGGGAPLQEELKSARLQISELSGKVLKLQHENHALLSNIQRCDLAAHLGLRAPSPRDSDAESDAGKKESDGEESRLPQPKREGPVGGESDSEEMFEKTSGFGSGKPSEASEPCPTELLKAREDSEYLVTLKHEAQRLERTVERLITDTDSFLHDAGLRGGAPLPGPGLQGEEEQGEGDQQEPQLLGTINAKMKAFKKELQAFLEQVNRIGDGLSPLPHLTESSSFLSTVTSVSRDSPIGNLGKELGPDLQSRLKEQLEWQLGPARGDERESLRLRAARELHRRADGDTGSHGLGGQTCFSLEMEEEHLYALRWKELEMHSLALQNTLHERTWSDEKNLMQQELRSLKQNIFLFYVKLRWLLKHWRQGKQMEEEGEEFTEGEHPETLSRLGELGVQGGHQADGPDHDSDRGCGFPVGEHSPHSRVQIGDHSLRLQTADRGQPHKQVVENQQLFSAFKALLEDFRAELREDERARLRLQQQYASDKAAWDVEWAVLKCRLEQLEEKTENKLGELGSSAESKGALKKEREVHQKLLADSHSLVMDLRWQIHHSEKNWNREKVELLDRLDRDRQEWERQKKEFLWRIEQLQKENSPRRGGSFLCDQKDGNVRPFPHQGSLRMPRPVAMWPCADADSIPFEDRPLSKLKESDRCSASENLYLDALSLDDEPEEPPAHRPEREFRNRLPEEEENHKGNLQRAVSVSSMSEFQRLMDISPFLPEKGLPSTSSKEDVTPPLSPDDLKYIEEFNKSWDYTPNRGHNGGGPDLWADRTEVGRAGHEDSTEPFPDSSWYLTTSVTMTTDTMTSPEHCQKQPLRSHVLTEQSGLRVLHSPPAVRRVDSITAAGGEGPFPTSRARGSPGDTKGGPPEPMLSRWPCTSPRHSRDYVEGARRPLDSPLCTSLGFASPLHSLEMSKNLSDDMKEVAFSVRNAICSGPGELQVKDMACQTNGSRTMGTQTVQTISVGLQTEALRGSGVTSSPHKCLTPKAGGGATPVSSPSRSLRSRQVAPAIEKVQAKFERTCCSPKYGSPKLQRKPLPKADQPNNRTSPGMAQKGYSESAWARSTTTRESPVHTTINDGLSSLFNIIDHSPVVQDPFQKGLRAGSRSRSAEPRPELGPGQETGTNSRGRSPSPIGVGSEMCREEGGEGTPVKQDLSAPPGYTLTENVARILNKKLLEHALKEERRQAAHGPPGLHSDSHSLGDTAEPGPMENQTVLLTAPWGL
UniProt Q15800: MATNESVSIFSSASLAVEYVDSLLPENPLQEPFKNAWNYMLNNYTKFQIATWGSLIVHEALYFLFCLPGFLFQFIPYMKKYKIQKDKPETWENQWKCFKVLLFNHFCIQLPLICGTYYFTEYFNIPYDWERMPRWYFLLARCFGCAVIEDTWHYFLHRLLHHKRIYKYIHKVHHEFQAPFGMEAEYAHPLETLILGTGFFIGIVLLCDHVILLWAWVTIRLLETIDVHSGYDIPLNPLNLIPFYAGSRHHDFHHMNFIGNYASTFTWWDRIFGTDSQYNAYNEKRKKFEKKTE
UniProt Q96E11: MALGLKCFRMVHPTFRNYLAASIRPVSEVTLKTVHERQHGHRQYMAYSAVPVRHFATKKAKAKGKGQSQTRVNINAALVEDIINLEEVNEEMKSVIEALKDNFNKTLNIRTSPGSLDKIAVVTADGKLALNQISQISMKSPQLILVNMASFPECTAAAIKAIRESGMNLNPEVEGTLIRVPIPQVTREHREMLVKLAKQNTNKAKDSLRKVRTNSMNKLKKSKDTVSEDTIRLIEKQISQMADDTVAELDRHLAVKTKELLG
UniProt Q13330: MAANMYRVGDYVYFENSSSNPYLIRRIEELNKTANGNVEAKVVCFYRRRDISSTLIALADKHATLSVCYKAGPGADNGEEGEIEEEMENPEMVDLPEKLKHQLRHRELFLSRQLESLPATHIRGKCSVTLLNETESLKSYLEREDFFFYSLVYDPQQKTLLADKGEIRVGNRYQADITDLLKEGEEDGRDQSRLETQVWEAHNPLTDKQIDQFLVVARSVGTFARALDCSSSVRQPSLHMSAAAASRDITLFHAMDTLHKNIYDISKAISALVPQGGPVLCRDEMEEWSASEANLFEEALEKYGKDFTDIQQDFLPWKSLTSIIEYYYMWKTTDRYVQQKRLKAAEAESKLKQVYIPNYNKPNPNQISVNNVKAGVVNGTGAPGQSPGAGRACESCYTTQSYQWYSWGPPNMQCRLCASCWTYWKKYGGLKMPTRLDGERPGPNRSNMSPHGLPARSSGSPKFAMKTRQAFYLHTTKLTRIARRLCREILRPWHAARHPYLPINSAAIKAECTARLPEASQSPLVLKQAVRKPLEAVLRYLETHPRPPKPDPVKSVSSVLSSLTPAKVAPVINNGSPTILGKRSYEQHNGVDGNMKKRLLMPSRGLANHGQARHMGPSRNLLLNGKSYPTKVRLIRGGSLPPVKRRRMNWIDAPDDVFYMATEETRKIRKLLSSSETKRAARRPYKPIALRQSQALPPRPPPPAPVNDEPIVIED
UniProt Q15390: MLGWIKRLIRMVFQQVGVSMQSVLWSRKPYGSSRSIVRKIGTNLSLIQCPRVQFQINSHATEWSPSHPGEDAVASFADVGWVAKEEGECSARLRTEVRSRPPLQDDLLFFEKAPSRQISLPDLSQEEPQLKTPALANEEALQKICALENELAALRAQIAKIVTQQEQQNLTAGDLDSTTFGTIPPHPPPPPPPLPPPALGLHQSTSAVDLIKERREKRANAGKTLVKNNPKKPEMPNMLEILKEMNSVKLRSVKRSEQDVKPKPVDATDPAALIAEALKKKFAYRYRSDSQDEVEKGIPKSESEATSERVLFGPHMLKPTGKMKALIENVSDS
UniProt Q9UBK8: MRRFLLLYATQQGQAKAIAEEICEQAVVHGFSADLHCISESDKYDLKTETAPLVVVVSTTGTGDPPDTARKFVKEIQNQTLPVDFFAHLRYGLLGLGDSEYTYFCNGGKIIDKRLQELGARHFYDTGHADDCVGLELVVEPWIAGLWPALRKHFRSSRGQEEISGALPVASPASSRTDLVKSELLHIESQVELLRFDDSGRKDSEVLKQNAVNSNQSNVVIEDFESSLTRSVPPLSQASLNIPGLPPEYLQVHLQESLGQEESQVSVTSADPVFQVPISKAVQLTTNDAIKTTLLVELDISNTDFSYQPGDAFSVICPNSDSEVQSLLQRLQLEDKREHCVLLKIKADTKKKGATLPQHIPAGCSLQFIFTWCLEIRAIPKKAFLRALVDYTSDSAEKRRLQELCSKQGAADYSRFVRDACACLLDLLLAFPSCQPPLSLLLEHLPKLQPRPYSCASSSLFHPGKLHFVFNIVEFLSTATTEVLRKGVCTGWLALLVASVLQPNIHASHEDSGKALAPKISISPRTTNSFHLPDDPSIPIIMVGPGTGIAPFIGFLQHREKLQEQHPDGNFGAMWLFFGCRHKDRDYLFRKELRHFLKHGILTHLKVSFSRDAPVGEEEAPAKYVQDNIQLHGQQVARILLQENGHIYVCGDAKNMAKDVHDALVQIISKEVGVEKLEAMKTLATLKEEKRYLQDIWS
MTHFD1, A0A384N5Y3, UniProt A0A384N5Y3, whole entry, looked up: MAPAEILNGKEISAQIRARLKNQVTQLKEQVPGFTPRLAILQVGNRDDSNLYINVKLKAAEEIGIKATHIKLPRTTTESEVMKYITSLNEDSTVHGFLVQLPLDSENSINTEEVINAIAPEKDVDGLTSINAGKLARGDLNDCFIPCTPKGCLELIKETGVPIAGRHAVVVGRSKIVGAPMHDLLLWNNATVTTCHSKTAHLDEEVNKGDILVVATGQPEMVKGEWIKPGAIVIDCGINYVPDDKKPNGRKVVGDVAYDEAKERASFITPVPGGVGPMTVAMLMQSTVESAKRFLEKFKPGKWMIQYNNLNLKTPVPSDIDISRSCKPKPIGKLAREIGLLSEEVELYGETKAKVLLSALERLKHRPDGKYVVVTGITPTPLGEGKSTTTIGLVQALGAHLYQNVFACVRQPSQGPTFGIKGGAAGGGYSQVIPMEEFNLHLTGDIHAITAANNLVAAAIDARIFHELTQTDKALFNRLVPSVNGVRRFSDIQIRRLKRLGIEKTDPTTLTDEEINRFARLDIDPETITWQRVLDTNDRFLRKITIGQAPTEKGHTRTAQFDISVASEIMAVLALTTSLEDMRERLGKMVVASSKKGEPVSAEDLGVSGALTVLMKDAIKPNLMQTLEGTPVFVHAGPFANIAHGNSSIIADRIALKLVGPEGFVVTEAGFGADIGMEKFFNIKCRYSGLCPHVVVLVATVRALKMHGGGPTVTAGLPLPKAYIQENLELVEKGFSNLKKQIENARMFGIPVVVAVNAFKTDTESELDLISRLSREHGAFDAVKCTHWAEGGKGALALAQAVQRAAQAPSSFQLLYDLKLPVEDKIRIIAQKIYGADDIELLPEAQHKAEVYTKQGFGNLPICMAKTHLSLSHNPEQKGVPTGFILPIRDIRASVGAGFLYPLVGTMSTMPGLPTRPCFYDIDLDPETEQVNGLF
UniProt P03905, whole entry, looked up: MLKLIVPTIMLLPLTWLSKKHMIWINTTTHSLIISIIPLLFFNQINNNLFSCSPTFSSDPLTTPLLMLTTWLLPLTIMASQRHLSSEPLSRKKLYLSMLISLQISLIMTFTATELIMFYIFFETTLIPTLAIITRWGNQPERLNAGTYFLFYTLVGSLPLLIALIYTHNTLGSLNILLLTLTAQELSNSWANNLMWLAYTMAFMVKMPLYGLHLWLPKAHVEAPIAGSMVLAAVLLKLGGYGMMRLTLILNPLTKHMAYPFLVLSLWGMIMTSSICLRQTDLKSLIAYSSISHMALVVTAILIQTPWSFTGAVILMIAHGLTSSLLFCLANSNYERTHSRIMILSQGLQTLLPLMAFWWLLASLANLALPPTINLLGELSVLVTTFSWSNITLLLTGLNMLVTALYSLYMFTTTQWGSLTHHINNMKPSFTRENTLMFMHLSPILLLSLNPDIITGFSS
UniProt Q9Y6C9: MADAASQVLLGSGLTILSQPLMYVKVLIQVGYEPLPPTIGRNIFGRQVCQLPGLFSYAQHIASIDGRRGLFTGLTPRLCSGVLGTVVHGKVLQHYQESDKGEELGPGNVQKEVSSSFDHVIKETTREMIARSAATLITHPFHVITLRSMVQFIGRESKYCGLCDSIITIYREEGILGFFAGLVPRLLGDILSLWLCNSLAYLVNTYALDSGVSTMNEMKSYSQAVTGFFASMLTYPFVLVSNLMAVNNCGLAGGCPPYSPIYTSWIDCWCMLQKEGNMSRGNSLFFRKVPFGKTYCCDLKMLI
UniProt Q13496: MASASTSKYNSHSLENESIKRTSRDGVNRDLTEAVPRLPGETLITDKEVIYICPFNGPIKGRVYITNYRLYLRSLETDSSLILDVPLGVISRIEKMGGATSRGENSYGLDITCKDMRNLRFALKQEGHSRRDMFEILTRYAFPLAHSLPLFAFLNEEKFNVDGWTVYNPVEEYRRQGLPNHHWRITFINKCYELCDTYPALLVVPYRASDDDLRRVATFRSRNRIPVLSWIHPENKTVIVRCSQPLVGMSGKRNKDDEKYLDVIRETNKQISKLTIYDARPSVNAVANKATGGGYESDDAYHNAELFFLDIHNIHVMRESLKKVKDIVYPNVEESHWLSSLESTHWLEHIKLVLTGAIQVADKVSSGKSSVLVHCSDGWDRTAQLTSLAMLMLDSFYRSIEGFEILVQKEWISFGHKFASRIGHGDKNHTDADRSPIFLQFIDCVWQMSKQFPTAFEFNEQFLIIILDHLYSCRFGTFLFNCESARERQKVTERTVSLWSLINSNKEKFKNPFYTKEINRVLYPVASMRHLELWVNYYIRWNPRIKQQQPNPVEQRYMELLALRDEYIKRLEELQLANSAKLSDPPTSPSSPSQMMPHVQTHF

Some of the results follow.

Compound in the test: CN1CCc2c(c3ccccc3n2Cc2ccc(C(=O)NO)cc2)C1 [Tubastatin A]
Put plainly: log2 fold change, soluble protein after heating vs DMSO (PISA); higher = thermal stabilisation; K562 lysate, 10 uM; active = over 0.2 and 3.5 SD of the protein, either way, in both replicates (recomputed). An outline of the steps:
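K562 pellets were dounce-homogenised in PBS pH 7.4 containing 1 mM MgCl2, and the crude extract, at 1 mg/mL protein, was exposed to 10 μM compound for 30 min. Aliquots were heated for 3 min across 48°C-58°C, pooled, brought to 0.5% NP-40 at 4°C and spun at 21,000xg for 90 min, with the supernatant taken as soluble protein. TMTpro 16plex LC-MS/MS with equalised channel sums quantified that protein. Values are log-two fold changes in thermal stability relative to solvent controls, taken from duplicates.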
As to MTCL1 (UniProt Q9Y4B5), the log2 fold change was inactive: -0.056. Take MRPS23 (UniProt Q9Y3D9): the log2 fold change is inactive: -0.043. As for MTMR1 (UniProt Q13613), the log2 fold change was inactive: -0.064. As for MSMO1 (UniProt Q15800), the log2 fold change was inactive: -0.03.

In the case of MSI2 (UniProt Q96DH6), the log2 fold change is inactive: -0.082. The value for MRPS11 (UniProt P82912) was inactive: -0.002; that for MTOR (UniProt P42345) was inactive: -0.118; that for MRPL37 (UniProt Q9BZE1) was inactive: -0.042.

On to MRPL38 (UniProt Q96DV4), for which the log2 fold change is inactive: -0.035. Then MRPS27 isoform 2 (UniProt Q92552), with inactive: -0.047; and MRRF (UniProt Q96E11), with inactive: 0.032. The value for MRPS6 (UniProt P82932) was inactive: -0.045; that for MRPL43 isoform 4 (UniProt Q8N983) was inactive: 0.057; that for MTA1 (UniProt Q13330) was inactive: -0.045.

Regarding MTFR1 (UniProt Q15390), the log2 fold change is inactive: -0.005. Then MRPS16 (UniProt Q9Y3D3), with inactive: -0.068; and MTRR isoform 1 (UniProt Q9UBK8), with inactive: 0.049.

For MTRES1 (UniProt Q9P0P8), the log2 fold change was inactive: 0.005.

Consider MTHFD1, A0A384N5Y3, for which the log2 fold change was inactive: -0.076. The value for MT-ND4 (UniProt P03905) was inactive: 0.074; that for MTCH2 (UniProt Q9Y6C9) was inactive: -0.046; that for MRPS7 (UniProt Q9Y2R9) was inactive: -0.021. On to MTM1 (UniProt Q13496), for which the log2 fold change was inactive: 0.013.
